The other results are listed elsewhere or left out.
Key:
Experiment in all cases: glycan array binding signal (z-score within array); higher = stronger binding
Details in all cases: glycan notation: IUPAC condensed, linker removed
[1] = biological target: Neu5Ac(a2-6)GlcNAc(b1-4)GlcNAc(b1-4)GlcNAc
How it was run: (§1)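 Glycan array data were curated from 3228 arrays in the Consortium for Functional Glycomics database and kept only where the protein sequence was available. Glycan names were converted to IUPAC-condensed notation, and columns mapping to the same glycan were averaged. The binding signal is a within-array Z-score, averaged across arrays of the same protein sequence at different concentrations or buffers and across linkers. Negative Z-scores can be read as non-binding.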

[2] = biological target: Neu5Ac(a2-8)Neu5Ac
How it was run: as §1

[3] = biological target: Neu5Ac(a2-8)Neu5Ac(a2-3)Gal(b1-3)GalNAc(b1-4)[Neu5Ac(a2-3)]Gal(b1-4)Glc
How it was run: as §1

[4] = biological target: Neu5Ac(a2-8)Neu5Ac(a2-3)Gal(b1-3)GalNAc(b1-4)[Neu5Ac(a2-8)Neu5Ac(a2-3)]Gal(b1-4)Glc
How it was run: as §1

[5] = biological target: Neu5Ac(a2-8)Neu5Ac(a2-3)Gal(b1-4)Glc
How it was run: as §1

[6] = biological target: Neu5Ac(a2-8)Neu5Ac(a2-3)Gal(b1-4)GlcNAc
How it was run: as §1

[7] = biological target: Neu5Ac(a2-8)Neu5Ac(a2-3)[Gal(b1-3)GalNAc(b1-4)]Gal(b1-4)Glc
How it was run: as §1

[8] = biological target: Neu5Ac(a2-8)Neu5Ac(a2-3)[GalNAc(b1-4)]Gal(b1-4)Glc
How it was run: as §1

[9] = biological target: Neu5Ac(a2-8)Neu5Ac(a2-8)Neu5Ac
How it was run: as §1

[10] = biological target: Neu5Ac(a2-8)Neu5Ac(a2-8)Neu5Ac(a2-3)Gal(b1-4)Glc
How it was run: as §1

[11] = biological target: Neu5Ac(a2-8)Neu5Ac(a2-8)Neu5Ac(a2-3)[Gal(b1-3)GalNAc(b1-4)]Gal(b1-4)Glc
How it was run: as §1

[12] = biological target: Neu5Ac(a2-8)Neu5Ac(a2-8)Neu5Ac(a2-3)[GalNAc(b1-4)]Gal(b1-4)Glc
How it was run: as §1

[13] = biological target: Neu5Ac(a2-8)Neu5Ac(a2-8)Neu5Ac(a2-8)Neu5Ac(a2-3)[GalNAc(b1-4)]Gal(b1-4)Glc
How it was run: as §1

[14] = biological target: Neu5Ac(a2-8)Neu5Gc(a2-3)Gal(b1-4)GlcNAc
How it was run: as §1

[15] = biological target: Neu5Ac(b2-6)Gal(b1-4)GlcNAc
How it was run: as §1

[16] = biological target: Neu5Ac(b2-6)GalNAc
How it was run: as §1

[17] = biological target: Neu5Ac9Ac(a2-3)Gal(b1-3)GlcNAc
How it was run: as §1

[18] = biological target: Neu5Ac9Ac(a2-3)Gal(b1-4)GlcNAc
How it was run: as §1

[19] = biological target: Neu5Ac9Ac(a2-6)Gal(b1-4)GlcNAc
How it was run: as §1

[20] = biological target: Neu5Gc(a2-3)Gal(b1-3)GlcNAc
How it was run: as §1

[21] = biological target: Neu5Gc(a2-3)Gal(b1-3)[Fuc(a1-4)]GlcNAc
How it was run: as §1

[22] = biological target: Neu5Gc(a2-3)Gal(b1-4)Glc
How it was run: as §1

[23] = biological target: Neu5Gc(a2-3)Gal(b1-4)GlcNAc
How it was run: as §1

[24] = biological target: Neu5Gc(a2-3)Gal(b1-4)GlcNAc(b1-3)Gal(b1-4)GlcNAc(b1-2)Man(a1-3)[Neu5Gc(a2-3)Gal(b1-4)GlcNAc(b1-3)Gal(b1-4)GlcNAc(b1-2)Man(a1-6)]Man(b1-4)GlcNAc(b1-4)GlcNAc
How it was run: as §1

[25] = biological target: Neu5Gc(a2-3)Gal(b1-4)[Fuc(a1-3)]GlcNAc
How it was run: as §1

[26] = biological target: Neu5Gc(a2-6)Gal(b1-4)GlcNAc
How it was run: as §1

[27] = biological target: Neu5Gc(a2-6)GalNAc
How it was run: as §1

[28] = biological target: Neu5Gc(a2-8)Neu5Ac(a2-3)Gal(b1-4)GlcNAc
How it was run: as §1

[29] = biological target: Neu5Gc(a2-8)Neu5Gc(a2-3)Gal(b1-4)GlcNAc
How it was run: as §1

[30] = biological target: Neu5Gc(a2-8)Neu5Gc(a2-3)Gal(b1-4)GlcNAc(b1-3)Gal(b1-4)GlcNAc
How it was run: as §1

[31] = biological target: Neu5Gc(a2-8)Neu5Gc(a2-6)Gal(b1-4)GlcNAc
How it was run: as §1

[32] = biological target: Neu5Gc(b2-6)Gal(b1-4)GlcNAc
How it was run: as §1

B1: GS13971A-bth-447-22-447 (Bacteroides thetaiotaomicron) (protein)
chain: EDVDNERSKGMFSASQSGFSTIEVYDLGPLNKIDLSIAKAGLEDTGGTVTFSVEQSLLDSLNNADGTSYQLLPPECYTIENATYSVSPGGDRRVTGGSLVYDPHKIYNLCGFDELKYVLPLRVSSTGTPMNSDRTATLYGFIVKEAIVRLASTGGDFVVEGGTTTSPMNLDTEISFENEWDLTTSFATKGADYVDNYNSANSTYYIPLPSDFYTLPDVTIAKGKTTGGSAISLLGETLPPGNYLLPVSLGGLSGQGDASINIDKETVANYFVIKQGGPINRDHWTVTANTEEKTGEVSAAYPHNGQTISLIDGEINTFWHSKWQGGEVAPPYEIILDMGKENSVSQLGLIARQNALTSMNLEIYAGDDGETWNLIGKYFFDGSIKTEQMVPVKACDARWIRIYIPTLGSGSSVGHLAEIYVYGTDK
- glycan array binding signal (z-score) [1]: -0.673
- glycan array binding signal (z-score) [2]: 0.669
- glycan array binding signal (z-score) [3]: -0.012
- glycan array binding signal (z-score) [4]: 0.441
- glycan array binding signal (z-score) [5]: -1.14
- glycan array binding signal (z-score) [6]: 0.986
- glycan array binding signal (z-score) [7]: 0.433
- glycan array binding signal (z-score) [8]: -0.39
- glycan array binding signal (z-score) [9]: -0.263
- glycan array binding signal (z-score) [10]: 1.11
- glycan array binding signal (z-score) [11]: -0.348
- glycan array binding signal (z-score) [12]: 1.67
- glycan array binding signal (z-score) [13]: -0.825
- glycan array binding signal (z-score) [14]: -0.892
- glycan array binding signal (z-score) [15]: 1.42
- glycan array binding signal (z-score) [16]: -0.312
- glycan array binding signal (z-score) [17]: 1.43
- glycan array binding signal (z-score) [18]: 0.182
- glycan array binding signal (z-score) [19]: 0.072
- glycan array binding signal (z-score) [20]: 1.12
- glycan array binding signal (z-score) [21]: -1.07
- glycan array binding signal (z-score) [22]: -0.572
- glycan array binding signal (z-score) [23]: 0.081
- glycan array binding signal (z-score) [24]: 2.02
- glycan array binding signal (z-score) [25]: -0.713
- glycan array binding signal (z-score) [26]: -0.708
- glycan array binding signal (z-score) [27]: 0.665
- glycan array binding signal (z-score) [28]: -1.36
- glycan array binding signal (z-score) [29]: -0.011
- glycan array binding signal (z-score) [30]: -0.321
- glycan array binding signal (z-score) [31]: 1.03
- glycan array binding signal (z-score) [32]: -0.599

— the supplement of paper PMC8728848
